HELM strings list residues between dots; [ac] is acetyl, [am] amide, other brackets name non-standard units. [ ]: non-standard residue; d: D form. βAla = NCCC(=O)O
Assay: general procedure: Fmoc solid-phase peptide synthesis; Fmoc-Lys(Boc)-[(4-(hydroxymethyl)phenoxyacetyl)-resin] (ABI 401425; 0.5 mmol/g) or Rink Amide AM resin (Novabiochem); FastMoc MonPrevPk programs; PyBOP/HOBt/DIEA for manual acylations
[1] = conjugation step, analytical RP-HPLC, Vydac 218TP54
[2] = whole synthesis, λ=214 nm, scale of the general procedure 0.1 mmol or 0.25 mmol

2′-[Succinimidopropionoyl-(H-Cys-Arg-Gln-Ile-Lys-Ile-Trp-Phe-Gln-Asn-Arg-Arg-Met-Lys-Trp-Lys-Lys-NH2)]paclitaxel
conjugation yield (conjugation step): 53%
final HPLC purity [1]: purity>97%

2′-[Succinimidopropionoyl-(H-Cys-Arg-Gln-Ile-Lys-Ile-Trp-Phe-Gln-Asn-Arg-Arg-Met-Lys-Trp-Lys-Lys-OH)]paclitaxel
conjugation yield (conjugation step): 62%
final HPLC purity [1]: purity>97%

4-[(Succinimidopropionoyl-Gly)-(H-Cys-bAla-Arg-Arg-Met-Lys-Trp-Lys-Lys-NH2)]podophyllotoxin (SEQ ID No. 19)
conjugation yield (conjugation step): 33%
final HPLC purity [1]: purity>97%

4-[Acetyl-(H-Cys-βAla-Arg-Arg-Met-Lys-Trp-Lys-Lys-NH2)]podophyllotoxin (SEQ ID No. 19)
conjugation yield (conjugation step): 100%
final HPLC purity [1]: purity>98%

4-[Succinimidopropionoyl-(H-Cys-Arg-Gln-Ile-Lys-Ile-Trp-Phe-Gln-Asn-Arg-Arg-Met-Lys-Trp-Lys-Lys-OH)]podophyllotoxin
conjugation yield (conjugation step): 35%
final HPLC purity [1]: purity>97%

4-[Succinimidopropionoyl-(H-Cys-D-Arg-D-Gln-D-Ile-D-Lys-D-Ile-D-Trp-D-Phe-D-Gln-D-Asn-D-Arg-D-Arg-D-Nle-D-Lys-D-Trp-D-Lys-D-Lys-NH2)]podophyllotoxin
conjugation yield (conjugation step): 52%
final HPLC purity [1]: purity>98%

4-[Succinimidopropionoyl-(H-Cys-b-Ala-D-Arg-D-Arg-D-Met-D-Lys-D-Trp-D-Lys-D-Lys-NH2)]podophyllotoxin
conjugation yield (conjugation step): 21%
final HPLC purity [1]: purity>98%

4-[Succinimidopropionoyl-(biotinamidocaproyl-βAla-Arg-Gln-Ile-Lys-Ile-Trp-Phe-Gln-Asn-Arg-Arg-Met-Lys-Trp-Lys-Lys-Gly-Cys-Gly-NH2)]podophyllotoxin
final HPLC purity [1]: purity>97%

4′-(Succinimidopropionoyl)epipodophyllotoxin-(H-Cys-Arg-Arg-Met-Lys-Trp-Lys-Lys-Cys-NH2)-2′-(succinimidopropionyl)paclitaxel (SEQ ID No. 21)
final HPLC purity [1]: purity>98%

4′-(Succinimidopropionoyl)epipodophyllotoxin-(H-Cys-Arg-Arg-Met-Lys-Trp-Lys-Lys-Cys-NH2)-10-O-(succinimidopropionoyl)camptothecin (SEQ ID No. 21)
final HPLC purity [1]: purity>96%

4′-Chloroacetyl-4-[succinimidopropionoyl-(H-Cys-Arg-Gln-Ile-Lys-Ile-Trp-Phe-Gln-Asn-Arg-Arg-Met-Lys-Trp-Lys-Lys-OH)]epipodophyllotoxin
conjugation yield (conjugation step): 67%
final HPLC purity [1]: purity>99%

4′-Demethyl-4-[4″-aminoanilino-(succinimidopropionoyl)-(H-Cys-βAla-Arg-Arg-Met-Lys-Trp-Lys-Lys-NH2)]epipodophyllotoxin (SEQ ID No. 19)
conjugation yield (conjugation step): 97%
final HPLC purity [1]: purity>98%

4′-Demethyl-4-[acetyl-(H-Cys-Arg-Gln-Ile-Lys-Ile-Trp-Phe-Gln-Asn-Arg-Arg-Met-Lys-Trp-Lys-Lys-NH2)]epipodophyllotoxin (SEQ ID No. 27)
conjugation yield (conjugation step): 56%
final HPLC purity [1]: purity>96%

4′-Demethyl-4-[acetyl-(H-Cys-βAla-Arg-Arg-Met-Lys-Trp-Lys-Lys-NH2)]epipodophyllotoxin (SEQ ID No. 19)
conjugation yield (conjugation step): 46%
final HPLC purity [1]: purity>98%

4′-Demethyl-4-[succinimidopropionoyl-(H-Cys-Arg-Gln-Ile-Lys-Ile-Trp-Phe-Gln-Asn-Arg-Arg-Met-Lys-Trp-Lys-Lys-OH)]epipodophyllotoxin
step yield (late stage modification step): 73%
final HPLC purity (late stage modification step, analytical RP-HPLC, Vydac 218TP54): purity>99%

4′-Methoxy-4-[4″-aminoanilino-(succinimidopropionoyl)-(H-Cys-Arg-Gln-Ile-Lys-Ile-Trp-Phe-Gln-Asn-Arg-Arg-Met-Lys-Trp-Lys-Lys-NH2)]epipodophyllotoxin (SEQ ID No. 27)
conjugation yield (conjugation step): 32%
final HPLC purity [1]: purity>99%

4′-Methoxy-4-[4″-aminoanilino-(succinimidopropionoyl)-(H-Cys-βAla-Arg-Arg-Met-Lys-Trp-Lys-Lys-NH2)]epipodophyllotoxin (SEQ ID No. 19)
conjugation yield (conjugation step): 49%
final HPLC purity [1]: purity>98%

4′-[Succinimidopropionoyl-(H-Cys-Arg-Gln-Ile-Lys-Ile-Trp-Phe-Gln-Asn-Arg-Arg-Met-Lys-Trp-Lys-Lys-NH2)]epipodophyllotoxin
conjugation yield (conjugation step): 81%
final HPLC purity [1]: purity>98%

4′-[Succinimidopropionoyl-(H-Cys-Arg-Gln-Ile-Lys-Ile-Trp-Phe-Gln-Asn-Arg-Arg-Met-Lys-Trp-Lys-Lys-OH)]epipodophyllotoxin
conjugation yield (conjugation step): 48%
final HPLC purity [1]: purity>98%

4′-[Succinimidopropionoyl-(H-Cys-Arg-Gln-Ile-Lys-Ile-Trp-Phe-Gln-Asn-Arg-Arg-Met-Lys-Trp-Lys-Lys-OH)]etoposide
conjugation yield (conjugation step): 77%
final HPLC purity [1]: purity>99%

4′-[Succinimidopropionoyl-(H-Cys-βAla-Arg-Arg-Met-Lys-Trp-Lys-Lys-NH2)]epipodophyllotoxin
conjugation yield (conjugation step): 63%
final HPLC purity [1]: purity>98%

7-[Succinimidopropionoyl-(H-Cys-Arg-Gln-Ile-Lys-Ile-Trp-Phe-Gln-Asn-Arg-Arg-Met-Lys-Trp-Lys-Lys-OH)]paclitaxel
final HPLC purity [1]: purity>97%

10-O-[Succinimidopropionoyl-(H-Cys-Arg-Gln-Ile-Lys-Ile-Trp-Phe-Gln-Asn-Arg-Arg-Met-Lys-Trp-Lys-Lys-NH2)]camptothecin (SEQ ID No. 27)
conjugation yield (conjugation step): 57%
final HPLC purity [1]: purity>98%

Biotinamidocaproyl-βAla-Arg-Gln-Ile-Lys-Ile-Trp-Phe-Gln-Asn-Arg-Arg-Met-Lys-Trp-Lys-Lys-Gly-Cys-Gly-NH2
final HPLC purity [2]: purity>99%

Bis-[4-(succinimidopropionoyl)podophyllotoxin]-(H-Cys-Arg-Arg-Met-Lys-Trp-Lys-Lys-Cys-NH2)
conjugation yield (conjugation step): 32%
final HPLC purity [1]: purity>98%

Example 1 [H-Glu-Gly-bAla]4 peptide
crude HPLC purity (whole synthesis, λ=200-300 nm, scale of the general procedure 0.1 mmol or 0.25 mmol): >89%

G2-[Succinimidopropionoyl-(H-Cys-Arg-Gln-Ile-Lys-Ile-Trp-Phe-Gln-Asn-Arg-Arg-Met-Lys-Trp-Lys-Lys-OH)]etoposide
conjugation yield (conjugation step): 80%
final HPLC purity [1]: purity>98%

G3-[Succinimidopropionoyl-(H-Cys-Arg-Gln-Ile-Lys-Ile-Trp-Phe-Gln-Asn-Arg-Arg-Met-Lys-Trp-Lys-Lys-OH)]etoposide
conjugation yield (conjugation step): 79%
final HPLC purity [1]: purity>98%

H-Arg-Gln-Ile-Lys-Ile-Trp-Phe-Gln-Asn-Arg-Arg-Met-Lys-Trp-Lys-Lys-OH (SEQ ID No. 1)
crude HPLC purity (whole synthesis, analytical RP-HPLC, Vydac 218TP54, scale 0.25 mmol): >90%

H-CRRMKWKKC-NH2 (cysteine pairing not given here)
final HPLC purity [2]: purity>99%

H-C[βAla]RRMKWKK-NH2
final HPLC purity [2]: purity>95%

H-C[βAla][dR][dR][dM][dK][dW][dK][dK]-NH2
final HPLC purity [2]: purity>99%

H-Cys-Arg-Gln-Ile-Lys-Ile-Trp-Phe-Gln-Asn-Arg-Arg-Met-Lys-Trp-Lys-Lys-NH2
final HPLC purity [2]: purity>99%

H-Cys-Arg-Gln-Ile-Lys-Ile-Trp-Phe-Gln-Asn-Arg-Arg-Met-Lys-Trp-Lys-Lys-OH
final HPLC purity [2]: purity>99%

H-Cys-D-Arg-D-Gln-D-Ile-D-Lys-D-Ile-D-Trp-D-Phe-D-Gln-D-Asn-D-Arg-D-Arg-D-Nle-D-Lys-D-Trp-D-Lys-D-Lys-NH2
final HPLC purity (whole synthesis, 214 nm, scale of the general procedure 0.1 mmol or 0.25 mmol): purity>99%

H-Cys-D-Lys-D-Lys-D-Trp-D-Lys-D-Met-D-Arg-D-Arg-D-Asn-D-Gln-D-Phe-D-Trp-D-Ile-D-Lys-D-Ile-D-Gln-D-Arg-NH2
final HPLC purity [2]: purity>99%

N-{3-[3-(H-Cys-Arg-Gln-Ile-Lys-Ile-Trp-Phe-Gln-Asn-Arg-Arg-Met-Lys-Trp-Lys-Lys-OH)succinimido]benzoyl}doxorubicin
final HPLC purity (whole synthesis, l=214 nm, scale of the general procedure 0.1 mmol or 0.25 mmol): purity>99%
crude mass (whole synthesis, scale 0.075 mmol): 238 mg

N-{3-[3-(H-Cys-D-Lys-D-Lys-D-Trp-D-Lys-D-Met-D-Arg-D-Arg-D-Asn-D-Gln-D-Phe-D-Trp-D-Ile-D-Lys-D-Ile-D-Gln-D-Arg-NH2)succinimido]benzoyl}doxorubicin
final HPLC purity [1]: purity>95%

O-(βAla-succinyl-βAla-Arg-Gln-Ile-Lys-Ile-Trp-Phe-Gln-Asn-Arg-Arg-Met-Lys-Trp-Lys-Lys-OH)bohemine (SEQ ID No. 20)
final HPLC purity (whole synthesis, analytical RP-HPLC, Vydac 218TP54, scale of the general procedure 0.1 mmol or 0.25 mmol): purity>93%

O-[Succinimidopropionoyl-(H-Cys-Arg-Gln-Ile-Lys-Ile-Trp-Phe-Gln-Asn-Arg-Arg-Met-Lys-Trp-Lys-Lys-OH)]bohemine (SEQ ID No. 27)
conjugation yield (conjugation step): 40%
final HPLC purity [1]: purity>95%

O-[Succinimidopropionoyl-(H-Cys-Arg-Gln-Ile-Lys-Ile-Trp-Phe-Gln-Asn-Arg-Arg-Met-Lys-Trp-Lys-Lys-OH)]roscovitine (SEQ ID No. 27)
final HPLC purity [1]: purity>98%

O-{3-[3-(Cys-Arg-Gln-Ile-Lys-Ile-Trp-Phe-Gln-Asn-Arg-Arg-Met-Lys-Trp-Lys-Lys-OH)succinimido]propionoyl}-bohemine
conjugation yield (conjugation step): 40%
final HPLC purity (conjugation step, λ=200-300 nm): purity>95%

PEPTIDE1{C.R.Q.[Ile_bopen].K.[Ile_bopen].W.F.Q.N.R.R.M.K.W.K.K.[am]}|CHEM1{[SuccProp-4-Podo]}$PEPTIDE1,CHEM1,1:R3-1:R1$$$V2.0
conjugation yield (conjugation step): 69%
final HPLC purity [1]: purity>98%
